Source: article PMC12963976
These are yes or no findings as the source states them, for the method shown. Binding seen in cells or lysates may run through a third protein. Some results given as binding are weak or reduced against the parent protein; the word gives no strength.

Sequences of proteins named here, by UniProt entry; tags and fusion partners are left off. A change or cut given only in a name is not applied to a line headed by its entry.
UniProt P15208: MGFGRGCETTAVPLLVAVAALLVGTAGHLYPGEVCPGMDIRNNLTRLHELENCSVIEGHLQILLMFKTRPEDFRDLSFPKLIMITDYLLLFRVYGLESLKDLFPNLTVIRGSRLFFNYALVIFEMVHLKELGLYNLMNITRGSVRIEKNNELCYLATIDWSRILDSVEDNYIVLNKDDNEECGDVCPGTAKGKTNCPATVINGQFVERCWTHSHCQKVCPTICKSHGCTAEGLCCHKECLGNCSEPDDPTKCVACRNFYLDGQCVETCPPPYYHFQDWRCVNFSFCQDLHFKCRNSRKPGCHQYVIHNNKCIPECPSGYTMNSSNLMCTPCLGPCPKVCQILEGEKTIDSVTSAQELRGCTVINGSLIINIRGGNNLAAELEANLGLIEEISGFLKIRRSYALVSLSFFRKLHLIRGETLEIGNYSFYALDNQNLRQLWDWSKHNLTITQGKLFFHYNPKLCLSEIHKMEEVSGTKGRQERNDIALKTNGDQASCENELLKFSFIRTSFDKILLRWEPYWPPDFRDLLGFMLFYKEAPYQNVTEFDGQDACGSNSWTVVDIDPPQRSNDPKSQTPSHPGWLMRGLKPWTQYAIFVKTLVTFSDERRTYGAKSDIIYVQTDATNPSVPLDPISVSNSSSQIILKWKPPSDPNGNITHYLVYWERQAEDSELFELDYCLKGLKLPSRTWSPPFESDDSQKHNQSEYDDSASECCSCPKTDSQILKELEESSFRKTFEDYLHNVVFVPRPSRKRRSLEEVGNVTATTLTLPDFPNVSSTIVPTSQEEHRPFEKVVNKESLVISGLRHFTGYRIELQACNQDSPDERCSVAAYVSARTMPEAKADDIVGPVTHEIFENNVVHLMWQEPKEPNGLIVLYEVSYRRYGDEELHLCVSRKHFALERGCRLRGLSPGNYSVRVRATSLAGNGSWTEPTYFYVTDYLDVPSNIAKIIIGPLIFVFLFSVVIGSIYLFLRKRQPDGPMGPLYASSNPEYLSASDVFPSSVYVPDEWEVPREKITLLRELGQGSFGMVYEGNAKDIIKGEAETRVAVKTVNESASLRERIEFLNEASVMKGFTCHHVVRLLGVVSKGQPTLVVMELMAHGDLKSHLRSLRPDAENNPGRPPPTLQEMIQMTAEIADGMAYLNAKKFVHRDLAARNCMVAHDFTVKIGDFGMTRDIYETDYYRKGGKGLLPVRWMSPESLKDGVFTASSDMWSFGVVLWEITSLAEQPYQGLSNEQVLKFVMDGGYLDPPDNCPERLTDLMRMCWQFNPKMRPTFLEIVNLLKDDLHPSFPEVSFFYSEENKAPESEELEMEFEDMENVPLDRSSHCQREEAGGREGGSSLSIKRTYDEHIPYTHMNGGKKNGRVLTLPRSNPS

Target: insulin receptor (INSR), endogenous in mouse skeletal muscle (mouse (endogenous in skeletal muscle)) (UniProt P15208)
Experiment: co-IP; 500 ug mouse skeletal muscle (gastrocnemius) lysate with 2 ug INSR antibody (sc-711) at 4 °C overnight, Protein G magnetic beads, western blot; mice injected with PBS or insulin (1.5 U/kg), muscle collected after 5 or 10 minutes

binding: binds
B1: caveolin-3 (CAV3) (protein, UniProt P51637 1-151)
chain: MMTEEHTDLEARIIKDIHCKEIDLVNRDPKNINEDIVKVDFEDVIAEPEGTYSFDGVWKVSFTTFTVSKYWCYRLLSTLLGVPLALLWGFLFACISFCHIWAVVPCIKSYLIEIQCISHIYSLCIRTFCNPLFAALGQVCSNIKVVLRREG
